Results as given in patent US20250101096A1.
Results are given in words; binding and its absence hold for the method and conditions named. Some results given as binding are weak or reduced against the parent protein; the word gives no strength.

Experiments:
[1] = biological target: anti-IBP4 antibody clone variant 7D6.G4; assay: ECLIA, peptide competes with IBP4 for the antibody
[2] = biological target: anti-IBP4 antibody clone variant 5B3.G9; assay: ECLIA, peptide competes with IBP4 for the antibody
[3] = biological target: anti-SHBG antibody clone variant 4G10.F8; assay: ECLIA, single peptide competes with SHBG for the antibody

binding [1] | binding [2] | binding [3] | Binder
binds | binds |  | KCWCVDRKTGVKLPG [H1]
 |  | binds | LRPVLPTQSAHDPP [1]

The remaining lines, values behind:

Binder | binding [1] | binding [2] | binding [3]
WCVDRKTGVKLPGGL [H2] | binds | binds | 
GQRGKCWCVDRKTGV [G11] | binds | binds | 
RGKCWCVDRKTGVKL [G12] | binds | binds | 
